Data from the ROBIN nucleic acid binder screens, doi:10.1002/anie.202211358.

Oligonucleotides screened, 5′ to 3′:
T1: TPP riboswitch RNA three-way junction, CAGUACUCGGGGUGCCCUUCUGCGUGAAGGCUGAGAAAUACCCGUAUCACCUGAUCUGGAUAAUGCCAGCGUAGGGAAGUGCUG. Hit rate about 0.7% of about 24,000 compounds.
T2: PreQ1 riboswitch RNA pseudoknot, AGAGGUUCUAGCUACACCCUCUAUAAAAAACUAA. From B. subtilis. Hit rate about 0.7% of about 24,000 compounds.
T3: SAM-II riboswitch RNA pseudoknot, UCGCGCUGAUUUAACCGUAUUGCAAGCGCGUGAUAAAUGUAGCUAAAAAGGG. Hit rate about 1% of about 21,000 compounds.

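Each compound is printed as two spots on a slide made to bind it covalently, so it has no test concentration; the read-out is fluorescence of the bound, labelled oligonucleotide. For the PreQ1, TPP and SAM-II riboswitches the laboratory earlier reported (doi:10.1038/s41467-019-09493-3) 1 µM RNA, 2 h, and a rule that included a mean Z-score above 3 (spot signal-to-noise against the whole library), a score well above that on a control array, and duplicate spots agreeing (coefficient of variation under 100). The data file gives only the calls; its cut-offs may differ, and compounds hitting several targets are kept. The calls come from the array alone, and fixing a compound to the slide can hide its binding.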 Key: Y = hit, N = tested without a hit. This is an unselected part of the compounds tested. A dash means that no call is listed here.

SMILES,T1,T2,T3
Cc1c(CCNC(=O)CC2COCCN2)c2cccc3c2n1CCC3 (stereo not drawn),N,N,N
CC(C)(C)n1cnc2cc(NCc3ccco3)ccc21,N,N,N
CCCn1cnc2cc(NCc3ccco3)ccc21,N,N,N
Cc1cc(NC(C)C)n2nc(Cc3ccccc3)nc2n1,N,N,-
N#Cc1cnn2c(NC3CCCCCC3)c(-c3cccc(Br)c3)[nH]c12,N,N,-
CCC(O)Cn1nc(CCSC)nc1-c1cc(=O)n(C)c2ccccc12 (stereo not drawn),N,N,N
COc1ccc(N2C(=O)CC(NC3CCCC3)C2=O)cc1 (stereo not drawn),N,N,N
Cl.Cl.O=C(O)c1cccc(-c2ccc(CNCCCN3CCOCC3)o2)c1,N,N,N
COc1cccc(-c2cccc(NC(=O)N3CCC[C@H]3CO)c2)c1,N,N,N
CCOC(=O)[C@H](CCc1ccccc1)N[C@@H](C)C(=O)N1[C@@H](C(=O)O)C[C@H]2CCC[C@@H]21,N,N,N
Cc1ccccc1-n1cc(-c2ccccc2)c2c(NCc3cccnc3)ncnc21,N,N,-
O=C(O)CC[C@@H]1CN(C(=O)c2ccc(CO)o2)CC[C@@H]1N1CCOCC1,N,N,N
C=CCNc1nnc(C)c2nnn(Cc3ccccc3Cl)c12,N,N,-
COCCNc1cc(C(C)(C)C)nc2c(-c3ccccc3)c(C)nn12,N,N,-
OC1CCN(c2ccnc(N3CCc4[nH]c5ccc(Cl)cc5c4C3)n2)C1 (stereo not drawn),N,N,N
Cc1csc(C2=C(N)N(c3ccc(Oc4ccccc4)cc3)CC2=O)n1,N,N,-
COC(=O)[C@@H](NCC(=O)Nc1ccc(C)cc1C)c1ccccc1,N,N,N
O=c1[nH]c(NC2CCN(Cc3cccnc3)CC2)nc2c1CCNC2,N,N,N
CCOC(=O)c1cnc2nc(C)nn2c1N,N,N,-
CCOC(=O)C1CCN(c2c(NCCc3cccc(C)c3)c(=O)c2=O)CC1,N,N,N
N#CC1(c2ccc(NC(=O)c3cccnc3NCc3ccncc3)cc2)CCCC1,N,N,N
CN(C)c1nc(NC(C)(C)C)nc(Oc2ccc(=O)n(C)n2)n1,N,N,-
CCCCNc1nc(-c2ccccc2)nc(-n2ccnc2)n1,N,N,N
COc1ccc([C@@H]2CC(=O)c3c(O)cc(O[C@@H]4O[C@H](CO[C@@H]5O[C@@H](C)[C@H](O)[C@@H](O)[C@@H]5O)[C@@H](O)[C@H](O)[C@@H]4O)cc3O2)cc1O,N,N,N
CC1(C)CC(Nc2nc(Cl)c(C#N)c(Cl)c2Cl)CC(C)(C)N1,N,N,N
O=C(C1NCCc2[nH]cnc21)N1CCC2(C=Cc3ccccc32)CC1 (stereo not drawn),N,N,N
CC(NCCC(=O)Nc1cccnc1)c1ccccc1C(F)(F)F (stereo not drawn),N,N,N
CSCc1nc(CCNC2CCOC3(CCOCC3)C2)cs1 (stereo not drawn),N,N,N
Cc1c(C#N)c(N)n(C2CCCCC2)c1C,N,N,N
CC[C@@]1(C(=O)OC)N[C@H](c2nccn2CCOC)[C@@H]2C(=O)N(C)C(=O)[C@@H]21,N,N,N
CC1=CC(=O)c2ccccc2C1=O,N,N,N
COC1OC(CO)C(N=C(C)C)C1O (stereo not drawn),N,N,N
COc1cc2nc(N3C[C@@H](C)[C@](O)(C4CC4)C3)nc(N)c2cc1OC,N,N,N
CCC=C(C)c1c(-c2ccccc2)ncn1CC(O)CO (stereo not drawn),N,N,N
CCOc1cccc(CN(CC)C(=O)CN2CC3(CCNCC3)OC2=O)c1,N,N,N
CC(=O)C1=C(C)OC(N)=C(C#N)C1c1cccc(Cl)c1 (stereo not drawn),N,N,N
CCCC(C)c1c(-c2ccccc2)ncn1CCOCCO (stereo not drawn),N,N,N
CCc1ccccc1NS(=O)(=O)c1cc(Br)cnc1N,N,N,-
COC(=O)c1cccc(-c2cc(-c3ccc(O)c(OC)c3)nc(N)c2C#N)c1,N,N,N
O=C1Nc2ccccc2C1=C1Nc2ccccc2C1=O,N,N,N
Nc1cccc2c1CN(C1CCC(=O)NC1=O)C2=O (stereo not drawn),N,N,N
Br.C=CC1CN2CCC1CC2C(O)c1ccnc2ccc(OC)cc12 (stereo not drawn),N,N,N
COc1cc2nc(NCc3ccccc3)n3nc(-c4cccnc4)nc3c2cc1OC,N,N,-
COc1ccc2c(c1)OC[C@]1(CO)CN(C(=O)CSc3ccncc3)C[C@H]21,N,N,N
Cc1nc2c(c(=O)[nH]1)CN(C(=O)[C@H]1CNC[C@@H](C(=O)N3CCCC3)C1)C2,N,N,N
Cc1ccc(NC(=O)Cn2nnc(C(=O)Nc3ccc(Br)cc3)c2N)cc1,N,N,N
O=C(c1ccc2ncsc2c1)N(CC=Cc1ccccc1)CCO,N,N,N
NC1=C(c2nc3ccccc3[nH]2)C(=O)CN1c1ccccc1,N,N,-
O=C(O)c1ccc(Nc2nc3ccccc3n3cnnc23)cc1,N,N,N
O=S1(=O)C=CC(Nc2cccc(C(F)(F)F)c2)C1 (stereo not drawn),N,N,N

Some entries from above, unchanged:

SMILES	T1	T2	T3
O=C1Nc2ccccc2C1=C1Nc2ccccc2C1=O	N	N	N
CC(NCCC(=O)Nc1cccnc1)c1ccccc1C(F)(F)F (stereo not drawn)	N	N	N
COCCNc1cc(C(C)(C)C)nc2c(-c3ccccc3)c(C)nn12	N	N	-
Br.C=CC1CN2CCC1CC2C(O)c1ccnc2ccc(OC)cc12 (stereo not drawn)	N	N	N
CC(=O)C1=C(C)OC(N)=C(C#N)C1c1cccc(Cl)c1 (stereo not drawn)	N	N	N